Measured values as given in publication PMC11841684.
No constants are given. Whether binding was seen depends on the method and setting. For some assays here: In cells and extracts the contact can be indirect. Some results given as binding are weak or reduced against the parent protein; the word gives no strength.

Amino acid sequences for entries named in this document (tags omitted). A change or cut given only in a name is not applied to a line headed by its entry. Residues count along the entry.
UniProt P02533: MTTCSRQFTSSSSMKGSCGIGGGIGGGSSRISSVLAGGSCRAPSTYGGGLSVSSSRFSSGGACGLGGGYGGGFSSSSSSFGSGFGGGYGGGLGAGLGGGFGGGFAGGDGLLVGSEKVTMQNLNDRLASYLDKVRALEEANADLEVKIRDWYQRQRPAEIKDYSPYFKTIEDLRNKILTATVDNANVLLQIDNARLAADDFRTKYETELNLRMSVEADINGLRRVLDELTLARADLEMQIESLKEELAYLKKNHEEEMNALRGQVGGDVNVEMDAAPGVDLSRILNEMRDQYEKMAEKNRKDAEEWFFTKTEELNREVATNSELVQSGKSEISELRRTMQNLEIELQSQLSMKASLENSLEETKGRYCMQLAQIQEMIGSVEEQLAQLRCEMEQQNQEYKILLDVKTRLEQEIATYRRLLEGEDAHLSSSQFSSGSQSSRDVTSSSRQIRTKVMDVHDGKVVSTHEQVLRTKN
UniProt Q96RW7: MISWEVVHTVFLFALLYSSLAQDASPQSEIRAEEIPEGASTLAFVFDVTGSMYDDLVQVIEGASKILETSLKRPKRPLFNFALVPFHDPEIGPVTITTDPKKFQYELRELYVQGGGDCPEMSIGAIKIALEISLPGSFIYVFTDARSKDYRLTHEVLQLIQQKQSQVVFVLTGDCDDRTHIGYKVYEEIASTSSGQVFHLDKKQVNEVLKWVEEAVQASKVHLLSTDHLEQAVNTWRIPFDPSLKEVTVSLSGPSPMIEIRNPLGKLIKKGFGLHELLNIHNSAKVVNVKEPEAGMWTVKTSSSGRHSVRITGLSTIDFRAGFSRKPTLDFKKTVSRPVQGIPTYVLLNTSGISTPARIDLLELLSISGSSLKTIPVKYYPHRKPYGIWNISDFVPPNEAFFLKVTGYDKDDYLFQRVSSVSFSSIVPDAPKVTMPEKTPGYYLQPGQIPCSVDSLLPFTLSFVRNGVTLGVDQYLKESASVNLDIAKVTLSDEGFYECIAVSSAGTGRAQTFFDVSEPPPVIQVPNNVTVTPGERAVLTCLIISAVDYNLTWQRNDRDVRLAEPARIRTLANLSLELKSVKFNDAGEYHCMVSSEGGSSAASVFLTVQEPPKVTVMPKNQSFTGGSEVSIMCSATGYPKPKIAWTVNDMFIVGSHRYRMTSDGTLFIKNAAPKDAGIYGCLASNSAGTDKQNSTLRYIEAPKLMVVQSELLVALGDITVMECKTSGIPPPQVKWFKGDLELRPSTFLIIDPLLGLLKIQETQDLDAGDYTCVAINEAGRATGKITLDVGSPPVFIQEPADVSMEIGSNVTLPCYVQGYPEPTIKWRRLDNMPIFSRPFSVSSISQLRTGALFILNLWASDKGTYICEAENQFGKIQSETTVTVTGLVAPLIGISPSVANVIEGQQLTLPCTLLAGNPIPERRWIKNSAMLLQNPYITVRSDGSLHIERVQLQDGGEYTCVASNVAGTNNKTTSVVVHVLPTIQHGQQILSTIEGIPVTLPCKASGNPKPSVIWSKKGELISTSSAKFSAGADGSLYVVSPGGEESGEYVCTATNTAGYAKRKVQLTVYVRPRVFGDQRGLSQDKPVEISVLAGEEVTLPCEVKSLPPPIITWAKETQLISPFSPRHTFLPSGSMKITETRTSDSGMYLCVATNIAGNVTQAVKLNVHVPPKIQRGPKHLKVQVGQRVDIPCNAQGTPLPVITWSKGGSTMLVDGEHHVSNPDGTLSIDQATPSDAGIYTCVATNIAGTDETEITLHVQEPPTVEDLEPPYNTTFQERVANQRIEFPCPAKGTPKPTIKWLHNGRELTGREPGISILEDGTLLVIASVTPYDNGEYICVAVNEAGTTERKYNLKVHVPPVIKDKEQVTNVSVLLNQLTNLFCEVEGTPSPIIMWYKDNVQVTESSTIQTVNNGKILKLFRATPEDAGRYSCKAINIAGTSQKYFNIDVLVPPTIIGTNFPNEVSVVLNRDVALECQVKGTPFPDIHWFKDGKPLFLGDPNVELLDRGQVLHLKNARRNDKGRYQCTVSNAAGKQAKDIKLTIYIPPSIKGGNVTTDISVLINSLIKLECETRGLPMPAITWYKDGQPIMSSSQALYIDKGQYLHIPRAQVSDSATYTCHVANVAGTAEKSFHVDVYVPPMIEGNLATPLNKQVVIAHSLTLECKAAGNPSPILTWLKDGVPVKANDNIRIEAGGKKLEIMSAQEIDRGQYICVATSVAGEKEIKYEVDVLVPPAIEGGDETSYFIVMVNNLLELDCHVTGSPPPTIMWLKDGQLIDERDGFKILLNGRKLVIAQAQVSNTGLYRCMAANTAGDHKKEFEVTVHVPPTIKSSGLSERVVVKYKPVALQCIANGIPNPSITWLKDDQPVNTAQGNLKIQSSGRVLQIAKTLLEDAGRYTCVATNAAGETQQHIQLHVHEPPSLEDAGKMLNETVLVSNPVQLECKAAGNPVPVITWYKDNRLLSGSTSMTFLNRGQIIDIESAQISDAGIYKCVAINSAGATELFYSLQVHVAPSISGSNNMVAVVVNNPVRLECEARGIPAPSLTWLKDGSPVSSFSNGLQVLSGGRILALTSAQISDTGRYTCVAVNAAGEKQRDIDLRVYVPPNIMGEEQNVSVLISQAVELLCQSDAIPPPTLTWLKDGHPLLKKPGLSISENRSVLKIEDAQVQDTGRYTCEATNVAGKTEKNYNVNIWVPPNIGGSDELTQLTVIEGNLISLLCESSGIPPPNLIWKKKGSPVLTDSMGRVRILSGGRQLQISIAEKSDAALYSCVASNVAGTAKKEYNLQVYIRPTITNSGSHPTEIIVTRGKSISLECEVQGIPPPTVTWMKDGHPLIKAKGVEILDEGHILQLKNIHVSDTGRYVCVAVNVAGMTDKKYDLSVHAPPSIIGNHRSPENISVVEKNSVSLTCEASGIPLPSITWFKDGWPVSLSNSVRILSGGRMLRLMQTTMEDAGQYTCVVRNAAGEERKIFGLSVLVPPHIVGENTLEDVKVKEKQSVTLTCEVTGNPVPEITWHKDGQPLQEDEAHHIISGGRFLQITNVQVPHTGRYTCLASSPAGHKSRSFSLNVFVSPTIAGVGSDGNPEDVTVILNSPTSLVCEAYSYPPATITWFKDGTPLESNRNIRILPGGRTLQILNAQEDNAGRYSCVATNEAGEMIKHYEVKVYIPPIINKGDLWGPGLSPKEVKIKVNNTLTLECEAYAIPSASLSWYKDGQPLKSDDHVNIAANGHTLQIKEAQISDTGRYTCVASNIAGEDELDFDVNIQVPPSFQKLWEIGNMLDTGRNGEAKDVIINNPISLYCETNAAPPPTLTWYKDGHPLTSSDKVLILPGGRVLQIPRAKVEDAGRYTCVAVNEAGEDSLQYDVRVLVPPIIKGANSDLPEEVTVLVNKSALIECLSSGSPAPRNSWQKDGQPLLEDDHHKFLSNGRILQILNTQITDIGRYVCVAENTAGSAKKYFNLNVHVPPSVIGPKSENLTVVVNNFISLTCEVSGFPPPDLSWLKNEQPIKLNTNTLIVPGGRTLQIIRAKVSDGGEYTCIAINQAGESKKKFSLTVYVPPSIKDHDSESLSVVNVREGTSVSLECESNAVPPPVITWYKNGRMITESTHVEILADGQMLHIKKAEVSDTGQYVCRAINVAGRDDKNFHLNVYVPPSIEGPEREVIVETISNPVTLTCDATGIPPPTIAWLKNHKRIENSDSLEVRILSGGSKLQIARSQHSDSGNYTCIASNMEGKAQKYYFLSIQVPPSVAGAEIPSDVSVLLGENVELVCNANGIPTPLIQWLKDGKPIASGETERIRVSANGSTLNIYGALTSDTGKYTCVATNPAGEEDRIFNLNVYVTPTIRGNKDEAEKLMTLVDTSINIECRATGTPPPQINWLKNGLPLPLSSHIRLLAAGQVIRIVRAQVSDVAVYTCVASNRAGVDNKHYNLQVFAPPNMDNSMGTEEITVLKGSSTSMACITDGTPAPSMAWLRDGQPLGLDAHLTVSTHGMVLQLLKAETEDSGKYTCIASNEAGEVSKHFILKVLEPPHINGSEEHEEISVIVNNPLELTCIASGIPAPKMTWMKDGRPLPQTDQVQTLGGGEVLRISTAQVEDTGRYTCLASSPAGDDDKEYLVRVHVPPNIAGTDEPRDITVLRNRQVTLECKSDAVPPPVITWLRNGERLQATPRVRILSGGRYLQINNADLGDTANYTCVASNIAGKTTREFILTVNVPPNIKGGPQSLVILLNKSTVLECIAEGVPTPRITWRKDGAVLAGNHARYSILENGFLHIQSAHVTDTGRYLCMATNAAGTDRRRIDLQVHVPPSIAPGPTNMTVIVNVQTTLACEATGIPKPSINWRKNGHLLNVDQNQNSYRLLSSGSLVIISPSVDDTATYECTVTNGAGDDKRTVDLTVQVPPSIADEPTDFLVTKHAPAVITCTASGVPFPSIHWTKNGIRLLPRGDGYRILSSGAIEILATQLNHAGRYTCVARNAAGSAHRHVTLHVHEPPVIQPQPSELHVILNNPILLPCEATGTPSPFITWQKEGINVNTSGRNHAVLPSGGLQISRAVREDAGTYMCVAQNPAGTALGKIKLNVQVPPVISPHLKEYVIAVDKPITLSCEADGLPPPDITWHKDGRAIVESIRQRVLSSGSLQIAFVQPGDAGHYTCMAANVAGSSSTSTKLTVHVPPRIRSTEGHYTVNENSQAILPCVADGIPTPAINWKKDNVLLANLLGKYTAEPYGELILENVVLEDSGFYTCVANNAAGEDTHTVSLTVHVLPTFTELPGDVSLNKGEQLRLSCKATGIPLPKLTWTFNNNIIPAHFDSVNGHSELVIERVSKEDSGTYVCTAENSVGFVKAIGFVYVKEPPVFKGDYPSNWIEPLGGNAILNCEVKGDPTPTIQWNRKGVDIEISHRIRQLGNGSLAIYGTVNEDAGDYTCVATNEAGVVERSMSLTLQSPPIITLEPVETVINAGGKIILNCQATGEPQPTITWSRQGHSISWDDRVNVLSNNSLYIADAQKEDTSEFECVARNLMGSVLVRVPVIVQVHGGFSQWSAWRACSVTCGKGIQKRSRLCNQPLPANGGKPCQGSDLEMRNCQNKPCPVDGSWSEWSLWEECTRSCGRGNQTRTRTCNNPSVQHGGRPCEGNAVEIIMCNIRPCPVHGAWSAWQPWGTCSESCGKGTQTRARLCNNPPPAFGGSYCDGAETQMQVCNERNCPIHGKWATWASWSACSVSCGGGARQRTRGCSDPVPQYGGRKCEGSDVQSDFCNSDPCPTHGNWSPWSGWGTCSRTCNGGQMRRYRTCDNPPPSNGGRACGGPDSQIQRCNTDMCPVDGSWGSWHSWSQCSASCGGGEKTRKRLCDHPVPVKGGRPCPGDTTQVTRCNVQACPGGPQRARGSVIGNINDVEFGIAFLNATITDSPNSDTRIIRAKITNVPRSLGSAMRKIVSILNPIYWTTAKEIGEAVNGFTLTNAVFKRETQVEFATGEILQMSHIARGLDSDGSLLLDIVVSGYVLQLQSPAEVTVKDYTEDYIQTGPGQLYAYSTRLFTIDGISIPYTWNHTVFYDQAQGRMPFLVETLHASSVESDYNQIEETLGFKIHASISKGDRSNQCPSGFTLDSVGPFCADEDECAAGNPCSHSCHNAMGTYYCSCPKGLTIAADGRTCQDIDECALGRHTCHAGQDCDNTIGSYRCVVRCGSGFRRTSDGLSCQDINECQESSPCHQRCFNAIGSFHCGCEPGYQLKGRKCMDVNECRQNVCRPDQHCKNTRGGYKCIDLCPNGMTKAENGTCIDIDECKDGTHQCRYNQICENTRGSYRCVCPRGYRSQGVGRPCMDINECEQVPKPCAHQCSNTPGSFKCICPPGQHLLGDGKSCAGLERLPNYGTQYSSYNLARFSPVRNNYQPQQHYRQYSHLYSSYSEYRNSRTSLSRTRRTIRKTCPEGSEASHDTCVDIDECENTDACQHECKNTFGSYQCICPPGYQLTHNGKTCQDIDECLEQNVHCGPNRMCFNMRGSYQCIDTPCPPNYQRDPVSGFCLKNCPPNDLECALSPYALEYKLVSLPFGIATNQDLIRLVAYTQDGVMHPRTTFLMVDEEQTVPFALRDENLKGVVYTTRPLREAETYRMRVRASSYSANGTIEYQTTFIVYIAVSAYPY
hemicentin-1 N-(VWFA) terminal part (aa 1–212), LexA fusion bait (pB29-HMCN1): residues 1-212 of Q96RW7

Columns and labels:
[1] = target: keratin 14 (endogenous, healthy human skin) (human (endogenous in skin)) (UniProt P02533); test: proximity ligation; Duolink In Situ Red kit on 5-μm paraffin-embedded tissue sections; rabbit anti-hemicentin-1 or rabbit anti-cytokeratin 5 with mouse anti-cytokeratin 14 antibody
Flag-tagged K14 (human) = Flag-tagged K14 (human) (UniProt P02533); test: co-IP; HeLa cells co-transfected for 48 h; lysate in 50 mM Tris, 150 mM NaCl, 5 mM EDTA, 1% NP40; anti-FLAG antibody on protein A/G magnetic beads, overnight at 4°C; immunoblot with anti-His antibody
[2] = target: hemicentin-1 N-(VWFA) terminal part (aa 1–212), LexA fusion bait (pB29-HMCN1) (human) (UniProt Q96RW7); test: two-hybrid; library screen by mating (Hybrigenics): HMCN1(1-212)-LexA bait against a random-primed human reconstituted skin (EpiSkin) cDNA library in pP6; His+ colonies selected on medium lacking tryptophan, leucine and histidine
[3] = target: hemicentin-1 N-(VWFA) terminal part (aa 1–212), LexA fusion bait (pB29-HMCN1) (human) (UniProt Q96RW7); test: two-hybrid; solid growth test, one bait against one prey: streaks of three independent diploid yeast clones on DO-2 and DO-3 media, HIS3 reporter; empty bait and prey vectors as negative controls

## keratin 5 (endogenous, human skin) (from UniProt P13647 1-590)
[1]
  binding: binds

## His-tagged hemicentin-1 VWFA domain (from UniProt Q96RW7 41-216) (domain or fragment)
Flag-tagged K14 (human)
  binding: binds

## hemicentin-1 (endogenous, healthy human skin) (from UniProt Q96RW7 22-5635)
[1]
  binding: binds

## keratin 14 (aa 92–188) prey (pP7-KRT14) (from UniProt P02533 92-188) (domain or fragment)
[2]
  binding: binds
[3]
  binding: binds
